Data: paper PMC5641635

Chains of the proteins cited; added tags and fusions are not shown.
UniProt P12235: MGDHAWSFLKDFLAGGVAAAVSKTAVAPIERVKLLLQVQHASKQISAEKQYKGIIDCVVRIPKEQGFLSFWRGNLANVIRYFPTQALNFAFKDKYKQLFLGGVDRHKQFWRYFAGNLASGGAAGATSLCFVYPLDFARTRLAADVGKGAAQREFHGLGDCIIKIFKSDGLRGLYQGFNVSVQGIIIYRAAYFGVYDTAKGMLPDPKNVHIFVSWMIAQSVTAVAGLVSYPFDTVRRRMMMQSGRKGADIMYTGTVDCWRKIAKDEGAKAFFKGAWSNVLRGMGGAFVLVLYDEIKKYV

Target: T1, FLAG-tagged wild-type full-length CDKAL1 (UniProt Q5VV42)
T1 sequence: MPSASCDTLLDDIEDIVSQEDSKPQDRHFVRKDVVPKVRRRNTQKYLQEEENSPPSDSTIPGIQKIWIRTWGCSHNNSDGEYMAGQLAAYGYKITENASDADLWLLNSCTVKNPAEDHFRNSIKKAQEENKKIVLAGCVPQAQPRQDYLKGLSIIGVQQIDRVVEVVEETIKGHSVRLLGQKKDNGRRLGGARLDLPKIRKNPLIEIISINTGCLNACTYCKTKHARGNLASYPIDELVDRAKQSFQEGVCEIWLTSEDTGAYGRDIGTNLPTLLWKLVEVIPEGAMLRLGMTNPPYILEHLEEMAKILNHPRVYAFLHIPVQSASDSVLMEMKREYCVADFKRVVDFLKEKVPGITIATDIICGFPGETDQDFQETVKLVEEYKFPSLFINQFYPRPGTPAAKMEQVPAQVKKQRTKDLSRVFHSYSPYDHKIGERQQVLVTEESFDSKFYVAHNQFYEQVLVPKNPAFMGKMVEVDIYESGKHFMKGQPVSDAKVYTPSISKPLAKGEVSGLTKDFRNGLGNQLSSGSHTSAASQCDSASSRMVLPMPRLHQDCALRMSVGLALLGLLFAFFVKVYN
Assay: affinity purification with mass spectrometry; FLAG-tagged CDKAL1 immunoprecipitated from transfected HEK293 cells, mass spectrometry as in the BioPlex project, analysis as in COMPASS

binding: binds
Substance: ANT1/SLC25A4, endogenous (from UniProt P12235 1-298)

Results are given in words; binding and its absence hold for the method and conditions named. In cells and extracts the contact can be indirect. Here binding means that the protein was enriched with, or labelled near, the bait; the list need not be complete. Tags and fused reporters may be left off the sequences shown.
